According to patent US20100311759A1, “ANTIPARASITIC AGENT FOR FISH AND METHOD OF CONTROLLING PROLIFERATION OF FISH PARASITES” (NIPPON SUISAN KAISHA, LTD., priority 2007, published 2010):

Tested on: Cryptocaryon irritans
Test: Examples 3 and 4: oral administration of single inhibitors and a combination, body length of Cryptocaryon irritans on Pagrus major (FIG. 4)
Assay type: in vivo
Conditions: 300 mg/kg fish body weight/day for three days; 60 parasites per plot; P≦0.01
Text: During the rearing period, 1.4 liters/min. of seawater was supplied. […] After exposure, seven fish each were moved into six 100-liter aquariums. During the rearing period, 1.4 liters/min. of seawater was supplied. […] Experimental plot: […]

Cc1cc(NS(=O)(=O)c2ccc(N)cc2)no1 [sulfamethoxazole]
growth rate of parasites (body length as percentage of control plot), difference from control plot: statistically significant difference
